Assay results reported in publication PMC4496374.
Results are given in words; binding and its absence hold for the method and conditions named. In cells and extracts the contact can be indirect. Some entries that bind do so weakly or less than the wild type. Sequences can lack the tags named with a protein.

Sequences of proteins named here, by UniProt entry; tags and fusion partners are left off.
UniProt Q13535: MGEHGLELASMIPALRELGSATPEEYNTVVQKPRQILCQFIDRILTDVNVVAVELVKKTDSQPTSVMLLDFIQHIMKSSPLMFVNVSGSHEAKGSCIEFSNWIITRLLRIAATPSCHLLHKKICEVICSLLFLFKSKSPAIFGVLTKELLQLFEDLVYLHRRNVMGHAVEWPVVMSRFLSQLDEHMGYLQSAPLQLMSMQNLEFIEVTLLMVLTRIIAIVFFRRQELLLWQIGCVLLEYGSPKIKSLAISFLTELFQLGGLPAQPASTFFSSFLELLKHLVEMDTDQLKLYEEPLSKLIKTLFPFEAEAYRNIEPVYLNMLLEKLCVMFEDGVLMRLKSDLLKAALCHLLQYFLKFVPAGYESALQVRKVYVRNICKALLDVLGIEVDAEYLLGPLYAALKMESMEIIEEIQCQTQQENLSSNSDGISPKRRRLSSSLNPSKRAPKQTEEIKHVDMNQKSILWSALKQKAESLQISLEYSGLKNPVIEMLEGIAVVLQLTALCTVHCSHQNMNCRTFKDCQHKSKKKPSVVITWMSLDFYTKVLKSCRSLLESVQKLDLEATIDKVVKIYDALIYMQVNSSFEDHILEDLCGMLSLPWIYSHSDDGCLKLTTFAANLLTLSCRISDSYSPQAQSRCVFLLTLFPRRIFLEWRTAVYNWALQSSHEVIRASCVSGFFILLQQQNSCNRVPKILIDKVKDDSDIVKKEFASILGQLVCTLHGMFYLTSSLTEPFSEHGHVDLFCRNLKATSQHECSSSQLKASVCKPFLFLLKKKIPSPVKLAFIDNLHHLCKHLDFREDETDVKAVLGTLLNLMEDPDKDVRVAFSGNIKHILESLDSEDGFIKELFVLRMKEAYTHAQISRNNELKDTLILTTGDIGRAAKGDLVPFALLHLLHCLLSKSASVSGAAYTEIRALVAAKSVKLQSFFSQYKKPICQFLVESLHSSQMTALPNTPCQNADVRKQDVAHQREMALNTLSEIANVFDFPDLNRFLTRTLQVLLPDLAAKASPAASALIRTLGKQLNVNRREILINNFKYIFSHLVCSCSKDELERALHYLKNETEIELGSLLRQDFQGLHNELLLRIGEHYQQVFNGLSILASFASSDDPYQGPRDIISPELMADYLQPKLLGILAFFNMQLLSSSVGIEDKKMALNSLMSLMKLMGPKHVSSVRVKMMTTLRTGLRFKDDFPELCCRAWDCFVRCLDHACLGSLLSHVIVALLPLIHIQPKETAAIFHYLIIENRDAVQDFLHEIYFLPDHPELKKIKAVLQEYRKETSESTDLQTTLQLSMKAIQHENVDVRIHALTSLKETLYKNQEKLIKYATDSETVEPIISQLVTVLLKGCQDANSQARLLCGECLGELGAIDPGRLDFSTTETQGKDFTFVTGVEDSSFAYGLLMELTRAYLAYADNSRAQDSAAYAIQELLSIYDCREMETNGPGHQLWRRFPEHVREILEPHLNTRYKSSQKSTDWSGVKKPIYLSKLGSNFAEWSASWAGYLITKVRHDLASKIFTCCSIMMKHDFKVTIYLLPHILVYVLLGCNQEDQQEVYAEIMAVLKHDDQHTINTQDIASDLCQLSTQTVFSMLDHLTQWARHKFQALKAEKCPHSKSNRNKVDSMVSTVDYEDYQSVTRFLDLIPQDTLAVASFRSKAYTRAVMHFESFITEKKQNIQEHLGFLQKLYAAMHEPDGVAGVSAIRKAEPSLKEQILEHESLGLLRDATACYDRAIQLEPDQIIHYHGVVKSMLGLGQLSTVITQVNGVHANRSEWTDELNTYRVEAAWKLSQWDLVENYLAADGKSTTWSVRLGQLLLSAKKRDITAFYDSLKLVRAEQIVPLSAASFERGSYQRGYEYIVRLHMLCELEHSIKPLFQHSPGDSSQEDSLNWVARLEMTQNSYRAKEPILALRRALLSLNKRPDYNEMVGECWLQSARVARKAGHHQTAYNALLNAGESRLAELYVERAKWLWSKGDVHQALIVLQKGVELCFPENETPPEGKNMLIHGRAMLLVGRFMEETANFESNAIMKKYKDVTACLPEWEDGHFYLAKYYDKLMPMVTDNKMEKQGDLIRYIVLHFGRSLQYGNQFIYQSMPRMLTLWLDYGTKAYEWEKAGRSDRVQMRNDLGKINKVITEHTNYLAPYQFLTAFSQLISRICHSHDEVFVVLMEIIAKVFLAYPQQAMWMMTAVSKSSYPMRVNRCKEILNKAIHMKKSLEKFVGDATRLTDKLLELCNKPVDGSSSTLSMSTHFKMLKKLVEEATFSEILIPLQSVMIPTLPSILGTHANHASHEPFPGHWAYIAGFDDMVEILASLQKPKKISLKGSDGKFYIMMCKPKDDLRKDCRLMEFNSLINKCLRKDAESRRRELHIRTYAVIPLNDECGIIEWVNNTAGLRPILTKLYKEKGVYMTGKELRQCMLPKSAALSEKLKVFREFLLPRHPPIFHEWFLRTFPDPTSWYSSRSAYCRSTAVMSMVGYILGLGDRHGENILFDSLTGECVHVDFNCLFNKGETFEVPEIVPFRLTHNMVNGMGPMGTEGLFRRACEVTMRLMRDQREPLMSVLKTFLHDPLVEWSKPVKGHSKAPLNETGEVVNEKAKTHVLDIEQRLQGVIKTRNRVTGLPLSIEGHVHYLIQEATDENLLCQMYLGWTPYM

What was measured:
[1] = molecular target: T1, GST-tagged C-terminal fragment of INPP4B (aa460-aa924) (UniProt O15327); test: pull-down; bacterially expressed GST-tagged INPP4B fragments as bait; lysates of unchallenged 293T cells overexpressing Flag-tagged ATR or BRCA1; immunoblot; input 1% of lysate; only the target purified
T1 sequence: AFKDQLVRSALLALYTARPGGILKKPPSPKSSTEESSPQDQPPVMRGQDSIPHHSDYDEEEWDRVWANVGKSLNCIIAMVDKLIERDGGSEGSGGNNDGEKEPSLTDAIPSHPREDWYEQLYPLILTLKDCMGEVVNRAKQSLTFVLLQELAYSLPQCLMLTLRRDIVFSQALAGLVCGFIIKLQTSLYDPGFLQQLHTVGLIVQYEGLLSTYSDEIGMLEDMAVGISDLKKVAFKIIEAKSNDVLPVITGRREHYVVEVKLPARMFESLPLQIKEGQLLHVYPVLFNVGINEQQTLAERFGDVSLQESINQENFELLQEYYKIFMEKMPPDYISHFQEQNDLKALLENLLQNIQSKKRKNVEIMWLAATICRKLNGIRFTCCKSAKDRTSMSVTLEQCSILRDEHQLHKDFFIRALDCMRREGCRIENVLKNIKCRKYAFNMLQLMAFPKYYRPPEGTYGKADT

[2] = molecular target: T2, GST-tagged middle fragment of INPP4B (aa200-aa760) (UniProt O15327); test: as above
T2 sequence: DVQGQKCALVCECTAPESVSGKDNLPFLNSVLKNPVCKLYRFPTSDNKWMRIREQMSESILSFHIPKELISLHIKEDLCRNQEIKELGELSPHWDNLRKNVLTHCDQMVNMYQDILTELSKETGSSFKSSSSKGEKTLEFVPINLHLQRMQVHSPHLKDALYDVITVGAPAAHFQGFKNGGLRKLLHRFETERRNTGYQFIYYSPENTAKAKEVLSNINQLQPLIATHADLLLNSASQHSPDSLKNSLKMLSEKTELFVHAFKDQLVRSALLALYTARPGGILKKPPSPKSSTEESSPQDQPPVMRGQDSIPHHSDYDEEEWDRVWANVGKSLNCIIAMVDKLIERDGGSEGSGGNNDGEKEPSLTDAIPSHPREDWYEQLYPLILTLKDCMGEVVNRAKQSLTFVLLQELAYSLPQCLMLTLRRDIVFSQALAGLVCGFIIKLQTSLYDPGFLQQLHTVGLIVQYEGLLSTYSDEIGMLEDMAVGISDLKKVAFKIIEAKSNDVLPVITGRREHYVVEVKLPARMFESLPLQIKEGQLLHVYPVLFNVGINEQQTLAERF

[3] = molecular target: T3, GST-tagged N-terminal fragment of INPP4B (aa1-aa460) (UniProt O15327); test: as above
T3 sequence: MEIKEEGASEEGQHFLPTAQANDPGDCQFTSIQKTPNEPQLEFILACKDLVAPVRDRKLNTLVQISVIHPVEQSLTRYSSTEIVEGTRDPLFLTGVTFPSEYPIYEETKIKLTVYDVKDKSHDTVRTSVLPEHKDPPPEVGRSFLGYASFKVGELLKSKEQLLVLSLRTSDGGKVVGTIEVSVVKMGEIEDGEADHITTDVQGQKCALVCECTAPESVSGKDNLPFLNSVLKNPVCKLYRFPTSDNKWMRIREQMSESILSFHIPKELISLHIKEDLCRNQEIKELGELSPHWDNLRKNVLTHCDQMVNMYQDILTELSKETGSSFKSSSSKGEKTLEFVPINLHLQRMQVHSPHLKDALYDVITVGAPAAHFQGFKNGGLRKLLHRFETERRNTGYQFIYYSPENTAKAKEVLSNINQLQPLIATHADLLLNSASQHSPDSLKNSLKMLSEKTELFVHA

[4] = molecular target: T4, Flag-tagged INPP4B (inositol polyphosphate 4-phosphatase type II) (UniProt O15327); test: co-IP; 293T cells transfected with Flag-INPP4B or empty Flag vector, lysed 48 h after transfection; lysates incubated with M2 (anti-FLAG) beads, washed in TBS-T and TBS; western blot
T4 sequence: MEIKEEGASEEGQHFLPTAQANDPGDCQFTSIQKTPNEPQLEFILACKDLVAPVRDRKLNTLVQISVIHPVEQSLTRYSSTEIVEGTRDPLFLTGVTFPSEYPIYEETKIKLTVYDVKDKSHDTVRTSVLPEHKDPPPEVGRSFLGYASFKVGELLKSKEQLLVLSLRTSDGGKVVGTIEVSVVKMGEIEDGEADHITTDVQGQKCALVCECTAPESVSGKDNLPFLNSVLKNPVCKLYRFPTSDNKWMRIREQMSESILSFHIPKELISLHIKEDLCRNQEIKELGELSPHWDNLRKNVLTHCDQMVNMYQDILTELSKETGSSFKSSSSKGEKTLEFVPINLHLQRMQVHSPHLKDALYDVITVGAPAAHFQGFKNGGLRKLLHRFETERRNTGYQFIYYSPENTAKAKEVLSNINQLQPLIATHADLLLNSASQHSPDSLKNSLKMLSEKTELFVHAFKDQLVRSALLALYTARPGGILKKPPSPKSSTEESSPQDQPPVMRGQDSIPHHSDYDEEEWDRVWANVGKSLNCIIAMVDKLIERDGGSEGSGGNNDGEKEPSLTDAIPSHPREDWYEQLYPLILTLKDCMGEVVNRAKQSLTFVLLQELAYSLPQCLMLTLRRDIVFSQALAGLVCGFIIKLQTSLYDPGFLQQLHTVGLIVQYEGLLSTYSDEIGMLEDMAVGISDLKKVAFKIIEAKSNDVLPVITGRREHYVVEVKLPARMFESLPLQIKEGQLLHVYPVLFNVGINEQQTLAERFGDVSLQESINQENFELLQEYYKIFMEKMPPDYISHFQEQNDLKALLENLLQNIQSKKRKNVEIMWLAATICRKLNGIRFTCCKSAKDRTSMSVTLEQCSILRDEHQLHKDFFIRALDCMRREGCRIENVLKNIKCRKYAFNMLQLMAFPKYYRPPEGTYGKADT

Row | Substance | binding [1] | binding [2] | binding [3] | binding [4]
1 | Flag-tagged ATR (from UniProt Q13535 1-2644) | no binding | binds | binds | –
2 | ATR (from UniProt Q13535 1-2644) | – | – | – | binds
